Source: US20160053007A1
These are yes or no findings as the source states them, for the method shown. Some binding calls cover weakened binding; strength is not graded here.

Target: T1, recombinant human TL1A (human) (UniProt O95150)
T1 sequence (looked up): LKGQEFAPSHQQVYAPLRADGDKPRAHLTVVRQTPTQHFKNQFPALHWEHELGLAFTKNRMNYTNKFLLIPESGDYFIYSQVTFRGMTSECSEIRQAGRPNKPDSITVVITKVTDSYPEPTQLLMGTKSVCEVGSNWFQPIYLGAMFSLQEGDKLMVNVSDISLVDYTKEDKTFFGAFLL
Test: bead-based sandwich assay, 1A9 on beads as capture antibody

B1: anti-human TL1A monoclonal antibody, hybridoma clone 1A9 (antibody, IgG2a, V domains shown)
VH: QIQLVQSGPELKKPGETVKISCKASGYTFTTYGMSWVKQAPGKGLKWMGWMNTYSGVTTYADDFKGRFAFSLETSASTAYMQIDNLKNEDTATYFCAREGYVFDDYYATDYWGQGTSVTVSS
VL: DVLMTQTPLSLPVSLGDQASISCRSSQNIVHSDGNTYLEWYLQKPGQSPKLLIYKVSNRFSGVPDRFSGSGSGTDFTLKISRVEAEDLGIYYCFQGSHVPLTFGAGTKLELK
With B1 the binding was “binds”.
